Results published in patent publication US20030171545A1, “Novel Protein” (priority 1999, published 2003).
No constants are given. Whether binding was seen depends on the method and setting. In cells and extracts the contact can be indirect. Some results given as binding are weak or reduced against the parent protein; the word gives no strength.

By UniProt entry, the sequences of proteins in these tests, tags left out. Where a name states a change or a piece, a line headed by the entry shows the natural chain unless it says otherwise.
UniProt Q15722: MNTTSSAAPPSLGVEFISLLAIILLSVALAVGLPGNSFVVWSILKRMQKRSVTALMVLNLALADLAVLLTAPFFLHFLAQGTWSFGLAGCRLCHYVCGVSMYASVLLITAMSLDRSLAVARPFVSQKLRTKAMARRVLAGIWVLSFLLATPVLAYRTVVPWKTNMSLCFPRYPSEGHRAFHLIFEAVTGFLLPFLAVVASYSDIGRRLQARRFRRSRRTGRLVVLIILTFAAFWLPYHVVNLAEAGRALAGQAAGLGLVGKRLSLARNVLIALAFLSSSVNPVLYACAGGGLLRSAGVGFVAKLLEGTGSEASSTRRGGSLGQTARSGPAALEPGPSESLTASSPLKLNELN

Assays:
[1] = target: leukotriene B4 receptor (BLTR) (human) (UniProt Q15722); test: co-immunoprecipitation (legend of FIG. 6)
[2] = target: leukotriene B4 receptor (BLTR) (human) (UniProt Q15722); test: co-immunoprecipitation from lysates of transiently transfected CHO cells, SDS-PAGE and immunoblot, without ligand stimulation

binding [1]: binds
binding [2]: binds
B1: leukotriene-B4 receptor-like polypeptide (LTRGW1) (receptor)
chain: MAPSHRASQVGFCPTPERPLWRLPPTCRPRRMSVCYRPPGNETLLSWKTSRATGTAFLLLAALLGLPGNGFVVWSLAGWRPARGRPLAATLVLHLALADGAVLLLTPLFVAFLTRQAWPLGQAGCKAVYYVCALSMYASVLLTGLLSLQRCLAVTRPFLAPRLRSPALARRLLLAVWLAALLLAVPAAVYRHLWRDRVCQLCHPSPVHAAAHLSLETLTAFVLPFGLMLGCYSVTLARLRGARWGSGRHGARVGRLVSAIVLAFGLLWAPYHAVNLLQAVAALAPPEGALAKLGGAGQAARAGTTALAFFSSSVNPVLYVFTAGDLLPRAGPRFLTRLFEGSGEARGGGRSREGTMELRTTPQLKVVGQGRGNGDPGGGMEKDGPEWDL
